Record: PubChem BioAssay AID686937 (Drosophila RNAi Screening Center, 2013)
In all, the deposit lists about 23,000 reagents; this is a random part of those that have a named target and a result. 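Reduced-secretion tags in replicate 1 do not always agree with the z-scores; no criterion for assigning the tags was given.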 No sequences are given here. Not stated in the record: the amount of reagent.

Screen: 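Genes in the fly needed for secretion of protein constitutively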 (primary screen)
Cell system: Drosophila S2 cells expressing secreted horseradish peroxidase
Reagent: long dsRNA against Drosophila genes
Time to read-out: about 5.5 days (5 days dsRNA, then 12 h reporter induction)
Challenge: reporter expression induced after 5 days of dsRNA, read 12 h later; inducer not stated
Measured: 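After 5 days of dsRNA and 12 h of reporter induction, medium peroxidase read by chemiluminescence and scored as per-plate z-score; higher values mean more reporter released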
Reading the numbers: z-score: higher = more reporter secreted into medium

Against CG9044 the deposit lists z-score, replicate 1 = 0.23; z-score, replicate 2 = 0.12.
Dip-B (Dipeptidase B) gave z-score, replicate 1 = -0.04; z-score, replicate 2 = 0.08.
Mip (Myoinhibiting peptide precursor) gave z-score, replicate 1 = 0.46; z-score, replicate 2 = 0.48.
After knock-down of CG34435 the results were z-score, replicate 1 = 0.56; z-score, replicate 2 = 0.63.
For CG16984 the deposit lists z-score, replicate 1 = 0.33; z-score, replicate 2 = 0.38.
Silencing of NAAT1 (Nutrient Amino Acid Transporter 1) resulted in: z-score, replicate 1 = 0.41; z-score, replicate 2 = 0.47.
After knock-down of Wdr92 (WD repeat domain 92), the record shows z-score, replicate 1 = 0.19; z-score, replicate 2 = 0.16.
With knock-down of CG34326 (retired record) the results were z-score, replicate 1 = 0.1; z-score, replicate 2 = -0.2.
Ugt301D1 (UDP-glycosyltransferase family 301 member D1) gave z-score, replicate 1 = 0.26; z-score, replicate 2 = 0.33.
Against Msr-110, the values are z-score, replicate 1 = 0.8; z-score, replicate 2 = 0.36.
CG15649 gave z-score, replicate 1 = 0.09; z-score, replicate 2 = 0.23.
apolpp (apolipophorin) showed z-score, replicate 1 = 0.22; z-score, replicate 2 = 0.1.
After knock-down of side-VII (sidestep VII), the record shows z-score, replicate 1 = 0.38; z-score, replicate 2 = 0.49.
Against mRpL48 (mitochondrial ribosomal protein L48), the values are z-score, replicate 1 = 0.53; z-score, replicate 2 = 0.37.
Rpp21 (Ribonuclease P/MRP subunit p21) gave z-score, replicate 1 = -0.06; z-score, replicate 2 = -0.26.
Knock-down of Pka-R2 (Protein kinase, cAMP-dependent, regulatory subunit type 2) resulted in: z-score, replicate 1 = 0.49; z-score, replicate 2 = 0.39.

Single entries from the list:
Value of CG34326 (retired record) under “z-score, replicate 1”: 0.1
CG34435, z-score, replicate 2: 0.63
